In one assay the test system is SUP-B15 Ph+ ALL cells. Kind of assay: MTS assay, SUP-B15. The class given is cell-based. The settings on record: Homo sapiens. The procedure:
(§1) Cell proliferation was analyzed using MTS assay and Trypan Blue exclusion. Annexin V-FITC/Propidium Iodide flow cytometry was used to analyze the induction of apoptosis in SUP-B15 cells after treatment with anolides. Cell cycle analysis was performed using propidium iodide flow cytometry. Modulation of BCR-ABL and downstream effector proteins was determined by western blot analysis. Syngery between withanolides and TKIs was evaluated using MTS viability to calculate combination indices. Apoptotic synergy was evaluated using Annexin V/PI.

A further assay concerns normal MRC-5 fibroblasts. Kind of assay: MTS assay, normal MRC-5 fibroblasts (Example 7). Format: cell-based. The settings on record: Homo sapiens, MRC5. The procedure:
as §1
All Solanaceae-derived withanolides tested had IC50 values in the nanomolar range in SUP-B15 cells, and in the micromolar range in normal MRC-5 fibroblasts, indicating a large therapeutic index (Table 11).
On the technique in general: Tetrazolium assays rely on reduction of a dye to a coloured formazan, in cell work by metabolically active cells.

SMILES strings stand for the structures.

What is called IC50 is the concentration that gives 50% inhibition. Take `Cc1ccc(NC(=O)c2ccc(CN3CCN(C)CC3)cc2)cc1Nc1nccc(-c2cccnc2)n1` [Imatinib]: the half-maximal inhibitory concentration (IC50) with SUP-B15 Ph+ ALL cells stood at 208 nM; in the assay on normal MRC-5 fibroblasts it was 15.3 µM.
